Laboratory results taken from the supplement of paper PMC10849652.
The list shows a part of the results. Residues, ends and D or L forms follow the SMILES beside them. *: point of attachment. Cbz = O=C(OCc1ccccc1)*

Amino acid sequences for entries named in this document (tags omitted). A change or cut given only in a name is not applied to a line headed by its entry.
UniProt P40855: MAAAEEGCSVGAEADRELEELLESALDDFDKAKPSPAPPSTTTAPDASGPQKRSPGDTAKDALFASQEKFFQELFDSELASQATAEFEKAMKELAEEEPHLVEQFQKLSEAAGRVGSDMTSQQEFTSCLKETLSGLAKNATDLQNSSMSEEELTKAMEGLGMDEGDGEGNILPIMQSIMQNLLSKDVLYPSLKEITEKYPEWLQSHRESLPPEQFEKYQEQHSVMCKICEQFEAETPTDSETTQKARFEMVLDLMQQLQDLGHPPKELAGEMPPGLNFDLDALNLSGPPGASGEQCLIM
UniProt Q01813: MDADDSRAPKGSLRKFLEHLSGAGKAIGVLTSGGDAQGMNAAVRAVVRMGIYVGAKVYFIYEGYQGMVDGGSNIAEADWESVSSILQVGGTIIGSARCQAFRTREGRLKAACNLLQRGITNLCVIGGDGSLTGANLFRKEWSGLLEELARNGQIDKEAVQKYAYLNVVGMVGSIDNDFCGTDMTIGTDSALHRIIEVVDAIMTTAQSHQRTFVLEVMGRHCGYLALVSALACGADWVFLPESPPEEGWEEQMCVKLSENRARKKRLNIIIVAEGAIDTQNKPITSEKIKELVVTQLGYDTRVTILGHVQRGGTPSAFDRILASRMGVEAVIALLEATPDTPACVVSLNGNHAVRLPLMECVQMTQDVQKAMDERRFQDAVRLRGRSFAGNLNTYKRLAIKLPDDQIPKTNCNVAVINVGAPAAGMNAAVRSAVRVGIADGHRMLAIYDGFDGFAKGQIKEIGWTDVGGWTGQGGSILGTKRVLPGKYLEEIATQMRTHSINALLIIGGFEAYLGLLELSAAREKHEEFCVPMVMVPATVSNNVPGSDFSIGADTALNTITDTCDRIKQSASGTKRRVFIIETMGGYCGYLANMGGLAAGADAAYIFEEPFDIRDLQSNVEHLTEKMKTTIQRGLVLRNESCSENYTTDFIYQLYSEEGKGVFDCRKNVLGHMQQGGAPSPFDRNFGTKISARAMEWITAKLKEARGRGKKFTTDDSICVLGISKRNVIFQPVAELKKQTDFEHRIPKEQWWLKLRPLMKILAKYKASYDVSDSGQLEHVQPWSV
UniProt Q9UBF8: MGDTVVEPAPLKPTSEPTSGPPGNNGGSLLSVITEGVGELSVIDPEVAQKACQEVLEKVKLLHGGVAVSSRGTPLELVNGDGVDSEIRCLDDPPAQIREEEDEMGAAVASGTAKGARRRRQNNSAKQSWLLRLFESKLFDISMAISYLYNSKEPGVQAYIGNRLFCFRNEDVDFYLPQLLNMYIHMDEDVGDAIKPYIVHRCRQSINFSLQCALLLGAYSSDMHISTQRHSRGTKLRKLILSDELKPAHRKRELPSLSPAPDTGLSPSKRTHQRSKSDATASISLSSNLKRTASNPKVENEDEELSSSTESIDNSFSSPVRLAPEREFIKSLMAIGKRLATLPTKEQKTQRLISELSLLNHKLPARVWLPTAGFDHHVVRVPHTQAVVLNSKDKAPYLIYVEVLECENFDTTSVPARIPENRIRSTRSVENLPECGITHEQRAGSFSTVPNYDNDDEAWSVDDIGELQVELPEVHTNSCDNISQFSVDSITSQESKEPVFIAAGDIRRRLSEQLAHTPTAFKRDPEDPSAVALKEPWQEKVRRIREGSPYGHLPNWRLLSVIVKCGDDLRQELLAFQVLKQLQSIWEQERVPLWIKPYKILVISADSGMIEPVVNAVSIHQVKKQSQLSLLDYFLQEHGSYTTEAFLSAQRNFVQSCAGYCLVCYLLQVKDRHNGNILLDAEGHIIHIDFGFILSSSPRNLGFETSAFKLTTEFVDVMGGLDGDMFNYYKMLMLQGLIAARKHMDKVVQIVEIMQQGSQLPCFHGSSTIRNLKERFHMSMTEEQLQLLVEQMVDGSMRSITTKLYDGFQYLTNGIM
UniProt O43175: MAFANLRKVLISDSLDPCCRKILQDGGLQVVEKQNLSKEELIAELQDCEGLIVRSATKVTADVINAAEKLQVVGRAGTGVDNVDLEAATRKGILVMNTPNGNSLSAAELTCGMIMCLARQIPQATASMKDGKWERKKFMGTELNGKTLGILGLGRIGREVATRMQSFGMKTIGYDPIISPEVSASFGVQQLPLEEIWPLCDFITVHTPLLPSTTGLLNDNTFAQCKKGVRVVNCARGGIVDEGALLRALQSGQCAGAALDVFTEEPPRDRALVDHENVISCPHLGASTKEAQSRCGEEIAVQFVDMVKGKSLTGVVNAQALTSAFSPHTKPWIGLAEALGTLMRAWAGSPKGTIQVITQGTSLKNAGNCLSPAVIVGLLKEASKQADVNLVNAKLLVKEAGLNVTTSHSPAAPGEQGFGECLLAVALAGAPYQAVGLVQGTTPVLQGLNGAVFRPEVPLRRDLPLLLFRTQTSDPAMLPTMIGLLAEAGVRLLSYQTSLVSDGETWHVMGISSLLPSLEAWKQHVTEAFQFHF
UniProt P08237: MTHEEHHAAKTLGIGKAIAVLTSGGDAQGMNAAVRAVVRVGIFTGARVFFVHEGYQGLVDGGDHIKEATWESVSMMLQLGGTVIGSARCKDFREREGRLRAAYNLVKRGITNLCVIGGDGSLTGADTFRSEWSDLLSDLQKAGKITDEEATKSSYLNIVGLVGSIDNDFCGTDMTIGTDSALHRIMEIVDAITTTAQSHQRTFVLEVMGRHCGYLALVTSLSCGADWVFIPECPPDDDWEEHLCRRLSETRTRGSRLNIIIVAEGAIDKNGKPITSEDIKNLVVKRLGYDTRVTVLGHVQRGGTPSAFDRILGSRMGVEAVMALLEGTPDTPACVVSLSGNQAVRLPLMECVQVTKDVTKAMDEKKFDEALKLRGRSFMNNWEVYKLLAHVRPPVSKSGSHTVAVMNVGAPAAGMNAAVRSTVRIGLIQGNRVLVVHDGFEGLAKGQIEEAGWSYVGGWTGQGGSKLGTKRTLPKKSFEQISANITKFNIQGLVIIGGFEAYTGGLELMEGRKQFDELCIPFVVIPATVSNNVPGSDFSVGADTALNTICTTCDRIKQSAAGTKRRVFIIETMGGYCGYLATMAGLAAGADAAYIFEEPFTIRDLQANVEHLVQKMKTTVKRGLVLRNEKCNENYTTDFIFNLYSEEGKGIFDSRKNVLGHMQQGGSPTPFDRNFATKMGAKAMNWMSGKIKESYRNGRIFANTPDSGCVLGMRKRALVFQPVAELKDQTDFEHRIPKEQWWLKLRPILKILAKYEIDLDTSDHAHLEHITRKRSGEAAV
UniProt P28328: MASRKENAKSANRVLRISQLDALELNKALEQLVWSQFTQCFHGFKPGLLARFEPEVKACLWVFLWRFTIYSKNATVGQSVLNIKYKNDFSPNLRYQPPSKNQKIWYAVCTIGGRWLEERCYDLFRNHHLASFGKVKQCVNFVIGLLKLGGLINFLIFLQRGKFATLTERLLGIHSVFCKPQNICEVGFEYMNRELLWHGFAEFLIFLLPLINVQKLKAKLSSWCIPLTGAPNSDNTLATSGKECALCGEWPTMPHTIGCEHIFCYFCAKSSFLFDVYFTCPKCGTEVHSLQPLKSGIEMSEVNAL
UniProt Q00169: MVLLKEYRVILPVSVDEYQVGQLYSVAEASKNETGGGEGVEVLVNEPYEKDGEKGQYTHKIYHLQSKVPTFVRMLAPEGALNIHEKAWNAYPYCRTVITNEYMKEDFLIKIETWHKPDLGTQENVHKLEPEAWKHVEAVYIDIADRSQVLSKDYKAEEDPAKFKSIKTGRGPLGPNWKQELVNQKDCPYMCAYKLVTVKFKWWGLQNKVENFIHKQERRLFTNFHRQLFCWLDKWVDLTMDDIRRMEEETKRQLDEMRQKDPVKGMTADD
UniProt Q92508: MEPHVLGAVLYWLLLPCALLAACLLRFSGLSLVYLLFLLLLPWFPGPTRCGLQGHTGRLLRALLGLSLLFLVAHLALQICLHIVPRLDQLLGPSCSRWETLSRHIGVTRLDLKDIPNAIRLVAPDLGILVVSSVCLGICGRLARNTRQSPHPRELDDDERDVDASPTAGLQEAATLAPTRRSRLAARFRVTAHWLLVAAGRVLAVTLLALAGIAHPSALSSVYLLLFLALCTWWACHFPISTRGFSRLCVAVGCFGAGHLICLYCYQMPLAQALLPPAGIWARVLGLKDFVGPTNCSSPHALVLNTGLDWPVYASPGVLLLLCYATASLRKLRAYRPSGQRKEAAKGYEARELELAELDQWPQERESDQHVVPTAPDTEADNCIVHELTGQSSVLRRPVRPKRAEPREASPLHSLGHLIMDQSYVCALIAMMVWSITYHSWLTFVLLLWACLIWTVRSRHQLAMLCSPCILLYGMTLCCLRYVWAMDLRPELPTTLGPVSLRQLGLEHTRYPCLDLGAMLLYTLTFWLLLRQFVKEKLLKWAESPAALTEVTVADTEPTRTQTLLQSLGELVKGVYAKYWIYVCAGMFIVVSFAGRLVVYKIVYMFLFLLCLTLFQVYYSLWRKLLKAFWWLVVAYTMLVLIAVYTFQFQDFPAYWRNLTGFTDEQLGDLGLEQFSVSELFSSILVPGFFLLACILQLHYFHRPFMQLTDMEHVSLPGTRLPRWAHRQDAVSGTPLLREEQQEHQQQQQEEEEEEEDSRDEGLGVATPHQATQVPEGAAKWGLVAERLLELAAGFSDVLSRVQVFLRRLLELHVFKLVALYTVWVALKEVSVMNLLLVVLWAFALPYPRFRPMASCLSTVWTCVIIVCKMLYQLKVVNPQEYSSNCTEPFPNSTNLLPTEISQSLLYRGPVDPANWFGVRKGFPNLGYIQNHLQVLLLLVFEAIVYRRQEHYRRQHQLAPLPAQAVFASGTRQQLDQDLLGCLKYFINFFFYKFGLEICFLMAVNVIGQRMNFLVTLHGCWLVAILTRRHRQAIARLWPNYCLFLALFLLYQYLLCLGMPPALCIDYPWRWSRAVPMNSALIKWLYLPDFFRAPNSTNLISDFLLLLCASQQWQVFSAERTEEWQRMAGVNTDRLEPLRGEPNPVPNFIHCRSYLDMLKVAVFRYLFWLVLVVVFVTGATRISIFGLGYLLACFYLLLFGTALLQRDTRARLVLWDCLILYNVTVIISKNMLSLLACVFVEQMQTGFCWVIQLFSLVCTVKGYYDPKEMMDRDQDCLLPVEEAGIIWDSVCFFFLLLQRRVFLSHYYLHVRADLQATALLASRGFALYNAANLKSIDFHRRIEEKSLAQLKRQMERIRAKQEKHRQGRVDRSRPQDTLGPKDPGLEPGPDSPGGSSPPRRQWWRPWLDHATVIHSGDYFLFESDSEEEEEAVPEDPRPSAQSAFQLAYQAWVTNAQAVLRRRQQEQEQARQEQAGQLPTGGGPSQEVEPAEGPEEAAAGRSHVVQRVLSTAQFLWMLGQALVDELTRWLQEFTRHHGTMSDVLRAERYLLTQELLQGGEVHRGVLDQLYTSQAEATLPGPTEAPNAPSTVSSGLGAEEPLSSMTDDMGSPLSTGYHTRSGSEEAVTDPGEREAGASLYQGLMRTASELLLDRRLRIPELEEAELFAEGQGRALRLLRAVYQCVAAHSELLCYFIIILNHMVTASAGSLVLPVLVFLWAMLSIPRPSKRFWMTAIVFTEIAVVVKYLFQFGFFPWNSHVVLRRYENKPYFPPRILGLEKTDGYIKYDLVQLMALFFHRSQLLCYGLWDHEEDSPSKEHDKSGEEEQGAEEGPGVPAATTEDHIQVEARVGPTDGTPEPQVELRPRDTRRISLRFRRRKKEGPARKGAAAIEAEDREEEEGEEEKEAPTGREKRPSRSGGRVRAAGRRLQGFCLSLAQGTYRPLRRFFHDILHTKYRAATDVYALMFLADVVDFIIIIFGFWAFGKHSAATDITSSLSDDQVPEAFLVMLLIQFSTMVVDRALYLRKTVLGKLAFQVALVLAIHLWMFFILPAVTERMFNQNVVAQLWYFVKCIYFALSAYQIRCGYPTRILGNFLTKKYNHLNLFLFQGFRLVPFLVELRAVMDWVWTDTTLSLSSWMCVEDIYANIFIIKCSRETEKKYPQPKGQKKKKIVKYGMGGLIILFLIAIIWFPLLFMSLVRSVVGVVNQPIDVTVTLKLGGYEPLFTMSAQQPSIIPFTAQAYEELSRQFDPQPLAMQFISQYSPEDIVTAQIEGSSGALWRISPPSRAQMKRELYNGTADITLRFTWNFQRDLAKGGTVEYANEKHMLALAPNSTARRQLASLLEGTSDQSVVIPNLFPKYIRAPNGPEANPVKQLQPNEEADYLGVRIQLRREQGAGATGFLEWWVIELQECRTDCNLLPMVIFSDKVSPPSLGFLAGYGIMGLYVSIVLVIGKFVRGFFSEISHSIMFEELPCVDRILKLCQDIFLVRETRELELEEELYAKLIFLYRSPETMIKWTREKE
UniProt Q8N0Y7: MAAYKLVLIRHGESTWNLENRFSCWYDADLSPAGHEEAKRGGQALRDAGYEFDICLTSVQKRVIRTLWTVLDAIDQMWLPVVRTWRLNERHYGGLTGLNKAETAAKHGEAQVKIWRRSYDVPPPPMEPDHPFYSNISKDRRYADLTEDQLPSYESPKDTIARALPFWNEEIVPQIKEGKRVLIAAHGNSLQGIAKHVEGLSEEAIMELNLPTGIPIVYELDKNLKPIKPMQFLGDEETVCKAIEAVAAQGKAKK

What was measured:
Assay in all cases: log2 fold change, soluble protein after heating vs DMSO (PISA); higher = thermal stabilisation; K562 cells, 10 uM, 30 min; active = over 0.2 and 3.5 SD of the protein, either way, in both replicates (recomputed)
IRAK-1-4 Inhibitor I = compound: C1COCCN1CCN2C3=CC=CC=C3N=C2NC(=O)C4=CC(=CC=C4)[N+](=O)[O-] [IRAK-1-4 Inhibitor I]
In short: (§1)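 Soluble protein was quantified by TMTpro 16plex LC-MS/MS after channel sums were equalised. It was obtained as the supernatant after 21,000xg for 90 min from pooled aliquots of K562 cells (2×10^6 cells/mL, 10 μM compound, 30 min) heated for 3 min across 48°C-58°C and extracted in PBS with 0.5% NP-40 at 4°C. Thermal stability values are relative to control samples and come from duplicates. They are given as log2 fold changes.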

ibrutinib = compound: C=CC(=O)N1CCC[C@@H](n2nc(-c3ccc(Oc4ccccc4)cc3)c3c(N)ncnc32)C1 [ibrutinib]
In short: as §1

[1] = compound: CC(=O)c1cnc2ccc(-c3cc(Cl)c(O)c(Cl)c3)nc2c1N[C@H]1CC[C@H](CN(C)C)CC1
In short: as §1

ralimetinib = compound: CC(C)(C)Cn1c(N)nc2ccc(-c3[nH]c(C(C)(C)C)nc3-c3ccc(F)cc3)nc21 [ralimetinib]
In short: as §1

[2] = compound: CC(C)(O)CC(=O)NCCn1ccc2ncnc(Nc3ccc(Oc4cccc(C(F)(F)F)c4)c(Cl)c3)c21
In short: as §1

[3] = compound: CC(C)C1=C2N=C(C=C(N2N=C1)NCC3=CC=CC=C3)NCCCCCCN
In short: as §1

[4] = compound: CC(C)C[C@@H](C=O)NC(=O)[C@H](CC(C)C)NC(=O)[C@H](CC(C)C)NC(=O)OCc1ccccc1
In short: as §1

pinometostat = compound: CC(C)N(C[C@H]1O[C@@H](n2cnc3c(N)ncnc32)[C@H](O)[C@@H]1O)[C@H]1C[C@@H](CCc2nc3cc(C(C)(C)C)ccc3[nH]2)C1 [pinometostat]
In short: as §1

[5] = compound: CC1=C(C(CC(=O)N1)C2=CC=C(C=C2)C(F)(F)F)C(=O)NC3=C(C=C4C(=C3)C=NN4)F
In short: as §1

[6] = compound: CC1=C(C2=C(C=C1)C(=O)C3=CC=CC=C3N2CCCN)C
In short: as §1

[7] = compound: CC1=C(C=C(C=C1)NC(=O)C2=CC(=CC=C2)C(C)(C)C#N)NC3=CC4=C(C=C3)N=CN(C4=O)C
In short: as §1

[8] = compound: CC1=C(C=C(C=C1)NC(=O)C2=CC(=CC=C2)N(C)C)NC(=O)C3=CC=C(C=C3)O
In short: as §1

[9] = compound: CC1=CC=C(C=C1)SC2=C3C=C(SC3=CN=C2)C(=O)N
In short: as §1

[10] = compound: CC1=NC(=CC=C1)C2=C(N=C(N2)C(C)(C)C)C3=CC4=NC=CN=C4C=C3
In short: as §1

Nexturastat A = compound: CCCCN(Cc1ccc(C(=O)NO)cc1)C(=O)Nc1ccccc1 [Nexturastat A]
In short: as §1

vemurafenib = compound: CCCS(=O)(=O)Nc1ccc(F)c(C(=O)c2c[nH]c3ncc(-c4ccc(Cl)cc4)cc23)c1F [vemurafenib]
In short: as §1

[11] = compound: CCCS(=O)(=O)Nc1ccc(F)c(C(=O)c2c[nH]c3ncc(Cl)cc23)c1F
In short: as §1

[12] = compound: CCCc1cc(C)[nH]c(=O)c1CNC(=O)c1cc(-c2ccnc(N3CCN(C)CC3)c2)cc2c1cnn2C(C)C
In short: as §1

givinostat = compound: CCN(CC)Cc1ccc2cc(COC(=O)Nc3ccc(C(=O)NO)cc3)ccc2c1 [givinostat]
In short: as §1

barasertib = compound: CCN(CCCOc1ccc2c(Nc3cc(CC(=O)Nc4cccc(F)c4)[nH]n3)ncnc2c1)CCOP(=O)(O)O [barasertib]
In short: as §1

Measured: log2 fold change

PEX19 (UniProt P40855)
inactive: IRAK-1-4 Inhibitor I 0.033 | ibrutinib 0.017 | [1] 0.035 | ralimetinib 0.029 | [2] 0.009 | [3] 0.072 | [4] 0.063 | pinometostat -0.024 | [5] 0.028 | [6] -0.035 | [7] -0.011 | [8] -0.001 | [9] 0.008 | [10] -0.009 | Nexturastat A 0.004 | vemurafenib 0.01 | [11] -0.001 | [12] -0.036 | givinostat 0.017 | barasertib 0.002

PFKP (UniProt Q01813)
inactive: IRAK-1-4 Inhibitor I 0.06 | ibrutinib 0.019 | [1] -0.014 | ralimetinib -0.028 | [2] 0.023 | [3] 0.05 | [4] -0.006 | pinometostat -0.017 | [5] 0.032 | [6] 0.055 | [7] -0.012 | [8] 0.013 | [9] 0.007 | [10] -0.003 | Nexturastat A -0.009 | vemurafenib -0.031 | [11] -0.021 | [12] -0.002 | givinostat 0.004 | barasertib -0.007

PI4KB (UniProt Q9UBF8)
inactive: IRAK-1-4 Inhibitor I 0.061 | ibrutinib -0.052 | [1] -0.007 | ralimetinib -0.095 | [2] -0.111 | [3] -0.098 | [4] 0.033 | pinometostat 0.004 | [5] -0.009 | [6] 0.07 | [7] -0.013 | [8] -0.02 | [9] -0.025 | [10] 0.031 | Nexturastat A -0.045 | vemurafenib 0.076 | [11] 0.019 | [12] -0.006 | givinostat -0.013 | barasertib -0.016

PHGDH (UniProt O43175)
inactive: IRAK-1-4 Inhibitor I 0.051 | ibrutinib 0.016 | [1] 0.015 | ralimetinib -0.04 | [2] -0.019 | [3] 0.044 | [4] 0.004 | pinometostat -0.045 | [5] -0.014 | [6] 0.005 | [7] 0.023 | [8] 0 | [9] 0.022 | [10] 0.021 | Nexturastat A -0.101 | vemurafenib 0.015 | [11] 0.017 | [12] -0.014 | givinostat -0.072 | barasertib 0.001

PLCH1 (UniProt Q4KWH8)
inactive: IRAK-1-4 Inhibitor I -0.081 | ibrutinib -0.186 | [1] -0.09 | ralimetinib -0.084 | [2] 0.016 | [3] -0.119 | [4] 0.017 | pinometostat -0.02 | [5] 0.01 | [6] 0.067 | [7] 0.013 | [8] 0.018 | [9] 0.007 | [10] -0.003 | Nexturastat A -0.084 | vemurafenib 0.001 | [11] -0.073 | [12] -0.003 | givinostat 0.043 | barasertib 0.008

PFKFB3 isoform 4 (UniProt Q16875)
inactive: IRAK-1-4 Inhibitor I 0.033 | ibrutinib 0.026 | [1] -0.039 | ralimetinib -0.034 | [2] -0.071 | [3] 0.007 | [4] -0.037 | pinometostat 0.001 | [5] 0.042 | [6] 0.104 | [7] -0.013 | [8] -0.017 | [9] 0.021 | [10] -0.004 | Nexturastat A -0.043 | vemurafenib 0.053 | [11] 0.027 | [12] 0.005 | givinostat -0.002 | barasertib 0.02

PFKM isoform 3 (UniProt P08237)
inactive: IRAK-1-4 Inhibitor I 0.025 | ibrutinib 0.021 | [1] -0.005 | ralimetinib -0.043 | [2] -0.01 | [3] 0.058 | [4] -0.016 | pinometostat -0.017 | [5] 0.023 | [6] 0.01 | [7] -0.02 | [8] -0.005 | [9] 0.008 | [10] 0 | Nexturastat A -0.071 | vemurafenib -0.021 | [11] 0.004 | [12] -0.02 | givinostat -0.023 | barasertib -0.022

PHKB isoform 3 (UniProt Q93100)
inactive: IRAK-1-4 Inhibitor I -0.063 | ibrutinib -0.044 | [1] 0.089 | ralimetinib 0.028 | [2] -0.073 | [3] -0.06 | [4] 0.094 | pinometostat 0.123 | [5] 0.031 | [6] -0.018 | [7] -0.109 | [8] -0.023 | [9] 0 | [10] 0.012 | Nexturastat A -0.01 | vemurafenib -0.042 | [11] -0.033 | [12] -0.017 | givinostat 0.024 | barasertib -0.008

PGRMC2 isoform 2 (UniProt O15173)
inactive: IRAK-1-4 Inhibitor I 0.067 | ibrutinib 0.055 | [1] 0.007 | ralimetinib -0.003 | [2] 0.014 | [3] 0.039 | [4] -0.017 | pinometostat -0.037 | [5] 0.003 | [6] 0.006 | [7] -0.005 | [8] -0.009 | [9] 0.023 | [10] -0.002 | Nexturastat A 0.001 | vemurafenib 0.02 | [11] -0.002 | [12] 0.003 | givinostat -0.023 | barasertib 0.011

Reprinted from the results shown (4 entries):
PEX19 (UniProt P40855)
inactive: IRAK-1-4 Inhibitor I 0.033 | ibrutinib 0.017 | [1] 0.035 | ralimetinib 0.029 | [2] 0.009 | [3] 0.072 | [4] 0.063 | pinometostat -0.024 | [5] 0.028 | [6] -0.035 | [7] -0.011 | [8] -0.001 | [9] 0.008 | [10] -0.009 | Nexturastat A 0.004 | vemurafenib 0.01 | [11] -0.001 | [12] -0.036 | givinostat 0.017 | barasertib 0.002

PFKP (UniProt Q01813)
inactive: IRAK-1-4 Inhibitor I 0.06 | ibrutinib 0.019 | [1] -0.014 | ralimetinib -0.028 | [2] 0.023 | [3] 0.05 | [4] -0.006 | pinometostat -0.017 | [5] 0.032 | [6] 0.055 | [7] -0.012 | [8] 0.013 | [9] 0.007 | [10] -0.003 | Nexturastat A -0.009 | vemurafenib -0.031 | [11] -0.021 | [12] -0.002 | givinostat 0.004 | barasertib -0.007

PI4KB (UniProt Q9UBF8)
inactive: IRAK-1-4 Inhibitor I 0.061 | ibrutinib -0.052 | [1] -0.007 | ralimetinib -0.095 | [2] -0.111 | [3] -0.098 | [4] 0.033 | pinometostat 0.004 | [5] -0.009 | [6] 0.07 | [7] -0.013 | [8] -0.02 | [9] -0.025 | [10] 0.031 | Nexturastat A -0.045 | vemurafenib 0.076 | [11] 0.019 | [12] -0.006 | givinostat -0.013 | barasertib -0.016

PHGDH (UniProt O43175)
inactive: IRAK-1-4 Inhibitor I 0.051 | ibrutinib 0.016 | [1] 0.015 | ralimetinib -0.04 | [2] -0.019 | [3] 0.044 | [4] 0.004 | pinometostat -0.045 | [5] -0.014 | [6] 0.005 | [7] 0.023 | [8] 0 | [9] 0.022 | [10] 0.021 | Nexturastat A -0.101 | vemurafenib 0.015 | [11] 0.017 | [12] -0.014 | givinostat -0.072 | barasertib 0.001

(cont.)

PEX2 (UniProt P28328)
inactive: IRAK-1-4 Inhibitor I -0.036 | ibrutinib -0.039 | [1] -0.06 | ralimetinib 0.036 | [2] -0.092 | [3] -0.06 | [4] 0.071 | pinometostat 0.046 | [5] 0.044 | [6] 0.04 | [7] -0.085 | [8] -0.041 | [9] 0.063 | [10] 0.021 | Nexturastat A 0.058 | vemurafenib 0.041 | [11] 0.065 | [12] -0.089 | givinostat -0.026 | barasertib 0.021

PIK3R4 (UniProt Q99570)
inactive: IRAK-1-4 Inhibitor I 0.033 | ibrutinib -0.013 | [1] 0.125 | ralimetinib -0.023 | [2] -0.014 | [3] -0.016 | [4] 0.025 | pinometostat 0.053 | [5] -0.015 | [6] 0.09 | [7] -0.003 | [8] 0.027 | [9] 0.013 | [10] -0.02 | Nexturastat A 0.066 | vemurafenib -0.002 | [11] 0.01 | [12] -0.019 | givinostat 0.008 | barasertib 0.005

PITPNA (UniProt Q00169)
inactive: IRAK-1-4 Inhibitor I 0.029 | ibrutinib 0.001 | [1] -0.004 | ralimetinib -0.048 | [2] -0.003 | [3] 0.079 | [4] -0.001 | pinometostat -0.01 | [5] 0.004 | [6] 0.023 | [7] -0.031 | [8] -0.003 | [9] -0.007 | [10] -0.008 | Nexturastat A -0.043 | vemurafenib -0.02 | [11] 0.015 | [12] -0.024 | givinostat -0.032 | barasertib -0.007

PKLR (UniProt P30613)
inactive: IRAK-1-4 Inhibitor I 0.034 | ibrutinib 0.011 | [1] -0.002 | ralimetinib -0.036 | [2] -0.002 | [3] 0.064 | [4] -0.02 | pinometostat -0.045 | [5] 0.027 | [6] -0.012 | [7] -0.022 | [8] -0.012 | [9] 0.027 | [10] 0.006 | Nexturastat A -0.018 | vemurafenib 0.006 | [11] 0.007 | [12] -0.015 | givinostat -0.015 | barasertib 0.002

PIEZO1 (UniProt Q92508)
inactive: IRAK-1-4 Inhibitor I 0.007 | ibrutinib 0.061 | [1] -0.015 | ralimetinib 0.017 | [2] 0.019 | [3] 0.108 | [4] 0.021 | pinometostat -0.008 | [5] 0.026 | [6] -0.022 | [7] -0.107 | [8] -0.009 | [9] -0.048 | [10] 0 | Nexturastat A -0.029 | vemurafenib -0.072 | [11] 0.008 | [12] -0.02 | givinostat -0.039 | barasertib -0.024

PGAM4 (UniProt Q8N0Y7)
inactive: IRAK-1-4 Inhibitor I 0.071 | ibrutinib 0.018 | [1] 0.024 | ralimetinib -0.043 | [2] 0.038 | [3] 0.062 | [4] 0.03 | pinometostat -0.025 | [5] 0.043 | [6] -0.012 | [7] -0.032 | [8] 0.033 | [9] 0.006 | [10] 0.009 | Nexturastat A -0.048 | vemurafenib -0.001 | [11] -0.001 | [12] -0.027 | givinostat -0.035 | barasertib -0.012

PGM2 (UniProt Q96G03)
inactive: IRAK-1-4 Inhibitor I 0.011 | ibrutinib 0.005 | [1] 0.007 | ralimetinib -0.057 | [2] -0.026 | [3] 0.048 | [4] -0.04 | pinometostat -0.047 | [5] 0.006 | [6] -0.003 | [7] -0.013 | [8] 0.004 | [9] -0.001 | [10] 0.034 | Nexturastat A -0.108 | vemurafenib 0.02 | [11] -0.006 | [12] -0.018 | givinostat -0.015 | barasertib -0.011
